Experiment [1] concerns the target heterochromatin protein 1α (HP1α), endogenous in Hucct1 cells (human (endogenous in Hucct1)) (UniProt P45973). Description: co-IP; nuclear extracts of Hucct1 cells, endogenous proteins, anti-HP1α (or anti-Dicer) antibodies, western blot; IgG as control. For orientation: A western blot detects proteins with antibodies after separation by electrophoresis.
Experiment [2] has as its target GST-HP1α fusion protein (heterochromatin protein 1α) (UniProt P45973). Nature of the experiment: pull-down; GST fusion protein held on glutathione-Sepharose 4B beads, HEK293 cell extracts added, treated with RNase A, 3 h under rotation at 4 °C, washed with ice-cold PBS, western blot with anti-Dicer (or anti-HP1α); only the target purified.
Experiment [3] has as its target GST-Dicer fusion protein (UniProt Q9UPY3). The experiment is described as above.
Experiment [4] concerns the target heterochromatin protein 1α (HP1α), endogenous in Hucct1 cells (human (endogenous in Hucct1)) (UniProt P45973). Nature of the experiment: co-IP; Hucct1 cells, endogenous proteins, 2.5 μg anti-HP1α antibodies and Protein A+G Agarose beads, western blot with anti-Dnmt1, anti-Dnmt3a, anti-Dnmt3b, anti-SUV39H1 and anti-H3K9me3; IgG as control.

By UniProt entry, the sequences of proteins in these tests, tags left out.
UniProt P45973: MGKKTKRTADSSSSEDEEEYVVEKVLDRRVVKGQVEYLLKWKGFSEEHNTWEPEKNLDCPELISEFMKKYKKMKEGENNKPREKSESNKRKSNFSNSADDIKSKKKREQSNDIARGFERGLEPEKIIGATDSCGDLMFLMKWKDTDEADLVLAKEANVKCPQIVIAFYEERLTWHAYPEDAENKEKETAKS
UniProt Q9UPY3: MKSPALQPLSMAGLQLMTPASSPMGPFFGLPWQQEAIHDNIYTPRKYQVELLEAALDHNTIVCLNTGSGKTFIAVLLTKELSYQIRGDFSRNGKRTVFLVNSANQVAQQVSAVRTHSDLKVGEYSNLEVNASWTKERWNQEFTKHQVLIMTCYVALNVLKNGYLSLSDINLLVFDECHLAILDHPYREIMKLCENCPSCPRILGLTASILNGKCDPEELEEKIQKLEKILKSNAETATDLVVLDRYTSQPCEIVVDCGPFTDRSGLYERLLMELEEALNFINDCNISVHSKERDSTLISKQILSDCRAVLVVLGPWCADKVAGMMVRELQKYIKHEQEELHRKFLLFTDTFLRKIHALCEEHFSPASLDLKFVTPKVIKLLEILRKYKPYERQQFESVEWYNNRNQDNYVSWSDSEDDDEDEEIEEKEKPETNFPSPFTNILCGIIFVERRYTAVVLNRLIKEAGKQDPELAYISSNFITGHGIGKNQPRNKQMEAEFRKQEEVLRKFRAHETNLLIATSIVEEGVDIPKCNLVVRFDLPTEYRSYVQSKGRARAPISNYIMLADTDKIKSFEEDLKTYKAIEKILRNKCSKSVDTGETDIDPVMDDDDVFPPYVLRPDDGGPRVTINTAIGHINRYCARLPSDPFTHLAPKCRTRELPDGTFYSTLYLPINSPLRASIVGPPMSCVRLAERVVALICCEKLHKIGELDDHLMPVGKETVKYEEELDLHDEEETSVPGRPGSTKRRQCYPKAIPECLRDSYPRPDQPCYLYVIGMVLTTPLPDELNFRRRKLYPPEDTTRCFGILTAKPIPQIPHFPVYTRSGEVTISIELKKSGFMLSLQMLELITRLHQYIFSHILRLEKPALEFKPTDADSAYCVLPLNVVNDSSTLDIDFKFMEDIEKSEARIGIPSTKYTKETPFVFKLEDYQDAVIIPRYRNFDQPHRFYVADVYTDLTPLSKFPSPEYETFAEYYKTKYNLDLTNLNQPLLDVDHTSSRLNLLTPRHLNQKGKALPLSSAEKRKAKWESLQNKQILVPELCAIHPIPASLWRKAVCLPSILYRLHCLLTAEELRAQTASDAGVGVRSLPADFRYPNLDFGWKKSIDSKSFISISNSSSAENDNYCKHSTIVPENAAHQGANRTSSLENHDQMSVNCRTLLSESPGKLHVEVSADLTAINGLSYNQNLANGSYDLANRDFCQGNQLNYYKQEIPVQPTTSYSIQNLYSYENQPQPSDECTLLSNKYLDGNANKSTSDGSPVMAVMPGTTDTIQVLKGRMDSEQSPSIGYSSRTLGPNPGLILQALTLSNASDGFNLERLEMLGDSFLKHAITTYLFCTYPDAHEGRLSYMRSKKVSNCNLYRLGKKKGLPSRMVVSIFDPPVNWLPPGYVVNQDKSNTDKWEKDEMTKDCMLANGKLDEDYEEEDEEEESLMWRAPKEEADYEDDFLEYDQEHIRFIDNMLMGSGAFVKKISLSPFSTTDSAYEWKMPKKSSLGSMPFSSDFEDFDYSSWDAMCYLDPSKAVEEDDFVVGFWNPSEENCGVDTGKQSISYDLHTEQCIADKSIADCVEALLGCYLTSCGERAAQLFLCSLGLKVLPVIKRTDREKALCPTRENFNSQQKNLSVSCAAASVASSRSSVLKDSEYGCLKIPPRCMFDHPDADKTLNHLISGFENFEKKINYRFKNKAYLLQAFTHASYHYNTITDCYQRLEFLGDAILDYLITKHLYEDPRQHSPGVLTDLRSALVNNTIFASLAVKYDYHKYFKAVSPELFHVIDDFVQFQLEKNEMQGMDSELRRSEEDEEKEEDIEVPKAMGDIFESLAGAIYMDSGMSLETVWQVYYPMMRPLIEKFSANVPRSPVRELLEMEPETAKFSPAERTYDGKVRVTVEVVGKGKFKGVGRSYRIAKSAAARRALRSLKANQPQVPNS

We go through 4 molecules from publication PMC5386496.

These are yes or no findings as the source states them, for the method shown. Binding seen in cells or lysates may run through a third protein. Some results given as binding are weak or reduced against the parent protein; the word gives no strength. For some of these results: Tags and fused reporters may be left off the sequences shown.

As to “Dicer, endogenous in Hucct1 cells (from UniProt Q9UPY3 1-1922)”, the binding entry in experiment [1] is listed as “binds”.

With “Dicer, endogenous in HEK293 cells (from UniProt Q9UPY3 1-1922)”, the binding result in experiment [2] is “binds”.

Regarding “heterochromatin protein 1α (HP1α), endogenous in HEK293 cells (from UniProt P45973 1-191)”, in experiment [3], the binding entry is “binds”.

B1: histone methyltransferase SUV39H1, endogenous in Hucct1 cells (enzyme, UniProt O43463 1-412)
chain: MAENLKGCSVCCKSSWNQLQDLCRLAKLSCPALGISKRNLYDFEVEYLCDYKKIREQEYYLVKWRGYPDSESTWEPRQNLKCVRILKQFHKDLERELLRRHHRSKTPRHLDPSLANYLVQKAKQRRALRRWEQELNAKRSHLGRITVENEVDLDGPPRAFVYINEYRVGEGITLNQVAVGCECQDCLWAPTGGCCPGASLHKFAYNDQGQVRLRAGLPIYECNSRCRCGYDCPNRVVQKGIRYDLCIFRTDDGRGWGVRTLEKIRKNSFVMEYVGEIITSEEAERRGQIYDRQGATYLFDLDYVEDVYTVDAAYYGNISHFVNHSCDPNLQVYNVFIDNLDERLPRIAFFATRTIRAGEELTFDYNMQVDPVDMESTRMDSNFGLAGLPGSPKKRVRIECKCGTESCRKYLF
With B1, the binding result in experiment [4] is “binds”.
